The source of these data is publication PMC13133773.

These are yes or no findings as the source states them, for the method shown. Some binding calls cover weakened binding; strength is not graded here. Where a sequence is shown, tags or fusion partners need not be part of it.

Assay [1] concerns the target WW-domain containing protein 1 (WWP1), full-length, GAL4 fusion (human) (UniProt Q9H0M0). Put plainly: two-hybrid; serial dilution growth assay: co-transformed haploid AH109, dilutions 10^0 to 10^-4 spotted on DDO and QDO plates, 30°C for 3-4 days; HIS3 and ADE2 reporters.
For assay [2] the target is unchanged. Briefly: two-hybrid; quantitative β-galactosidase assay (lacZ reporter) of co-transformed haploid AH109; permeabilised cells in Z-buffer, X-gal staining solution in 96-well plate, read with ImageJ at t90 or t120.

B1: WW domain binding protein 2 (WBP2), full-length, GAL4 fusion (protein, UniProt Q969T9 1-261)
chain: MALNKNHSEGGGVIVNNTESILMSYDHVELTFNDMKNVPEAFKGTKKGTVYLTPYRVIFLSKGKDAMQSFMMPFYLMKDCEIKQPVFGANYIKGTVKAEAGGGWEGSASYKLTFTAGGAIEFGQRMLQVASQASRGEVPSGAYGYSYMPSGAYVYPPPVANGMYPCPPGYPYPPPPPEFYPGPPMMDGAMGYVQPPPPPYPGPMEPPVSGPDVPSTPAAEAKAAEAAASAYYNPGNPHNVYMPTSQPPPPPYYPPEDKKTQ
For B1, the binding result in assay [1] and in assay [2] was “binds” throughout.
